# Screening data

From PubChem BioAssay record AID1224904 (Broad Institute, 2016).

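Selective DUX4 reporter inhibition in doxycycline-induced 293T-iDUX4 cells, scored as Gaussia percent activity minus Italica percent activity, after a 24-hour treatment.
The test concentration is not given here.
Percent difference between the Gaussia and Italica channels; more negative values mean more selective suppression of the DUX4 reporter, and higher values mean less activity.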

Values are in %.
How 0% and 100% were set is not given here.
Common to all entries: measured here: selective DUX4 reporter inhibition.
This is a side read-out of the assay, for part of the compounds, not drawn at random.

{"compound": "Cc1ccccc1-c1ccc([C@@H]2[C@@H](CO)N3CCCCN(C(=O)Nc4cccc(F)c4)C[C@H]23)cc1", "Gaussia minus Italica difference (%)": "14.33"}
{"compound": "Fc1ccccc1-c1ccc(C2[C@@H]3CN(Cc4ccccn4)C[C@H]2N3)cc1", "stereo": "stereo partly specified", "Gaussia minus Italica difference (%)": "-20.47"}
{"compound": "O=C(Cc1ccccc1)N1CCCCN2[C@H](CO)[C@H](c3ccc(C#CC4(O)CCCC4)cc3)[C@H]2C1", "Gaussia minus Italica difference (%)": "-3.273"}
{"compound": "COc1ccc2c3c([nH]c2c1)[C@H](CO)N(S(=O)(=O)c1cn(C)cn1)CC31CCN(Cc2ccccc2F)CC1", "Gaussia minus Italica difference (%)": "15.06"}
{"compound": "O=C(C[C@H]1CC[C@@H]2[C@H](COC[C@H](O)CN2S(=O)(=O)c2ccc(Cl)cc2)O1)NCc1ccc(Cl)c(Cl)c1", "Gaussia minus Italica difference (%)": "0.1316"}
{"compound": "C(=C\\c1ccc(C2[C@@H]3CN(Cc4nccs4)C[C@H]2N3)cc1)/c1ccccc1", "stereo": "stereo partly specified", "Gaussia minus Italica difference (%)": "-0.893"}
{"compound": "O=C(c1cnccn1)N1CC(=O)N2[C@H](C1)[C@H](c1ccc(C#CCc3ccccc3)cc1)[C@@H]2CO", "Gaussia minus Italica difference (%)": "-16.49"}
{"compound": "CC(C)CC#Cc1ccc([C@H]2[C@H]3CN(C(=O)c4ccc5c(c4)OCO5)CC(=O)N3[C@H]2CO)cc1", "Gaussia minus Italica difference (%)": "-12.78"}
{"compound": "CO[C@@H]1CN(C)C(=O)c2cc(NC(=O)Nc3cccc(F)c3)ccc2OC[C@H](C)N(C(=O)C2CC2)C[C@@H]1C", "Gaussia minus Italica difference (%)": "-13.27"}
{"compound": "O=S(=O)(c1ccc(-c2ccccc2)cc1)N1C[C@@H]2N[C@H](C1)C2c1ccc(-c2cncnc2)cc1", "stereo": "stereo partly specified", "Gaussia minus Italica difference (%)": "-15.6"}
{"compound": "CN(C)C(=O)c1cccc(-c2ccc3c(c2)[C@@H]2[C@@H](CCN2C(=O)c2ccc(F)cc2)[C@H](CO)N3C)c1", "Gaussia minus Italica difference (%)": "5.91"}
{"compound": "COc1ccc2c3c(n(C)c2c1)[C@H](CO)N(C(=O)c1ccccc1)CC31CN(Cc2ccccc2OC)C1", "Gaussia minus Italica difference (%)": "-1.142"}
{"compound": "C[C@H](O)C#Cc1ccc([C@@H]2[C@@H](CO)N3CCCCN(C(=O)Nc4ccccc4)C[C@@H]23)cc1", "Gaussia minus Italica difference (%)": "5.561"}
{"compound": "CC(C)CC#Cc1ccc([C@H]2[C@H]3CN(S(=O)(=O)c4ccccc4)CC(=O)N3[C@H]2CO)cc1", "Gaussia minus Italica difference (%)": "-18.17"}
{"compound": "O=C(Cc1ccccc1)N1CC2(C1)[C@H](c1ccccc1)[C@@H](CO)N2Cc1cccc(F)c1", "Gaussia minus Italica difference (%)": "-18.86"}
{"compound": "O=C(C[C@H]1CC[C@H]2[C@@H](COC[C@@H](O)CN2CC2CCCCC2)O1)NCc1ccc(Cl)cc1", "Gaussia minus Italica difference (%)": "-3.634"}
{"compound": "Cc1ccccc1S(=O)(=O)N1C[C@@H]2N[C@H](C1)C2c1ccc(-c2cccc(C(=O)N(C)C)c2)cc1", "stereo": "stereo partly specified", "Gaussia minus Italica difference (%)": "-3.182"}
{"compound": "COC(=O)[C@H]1[C@H](CO)[C@H]2Cn3c(ccc(C4=CCCCC4)c3=O)[C@@H]1N2CC1CCCCC1", "Gaussia minus Italica difference (%)": "-2.386"}
{"compound": "C[C@H]1CN([C@@H](C)CO)C(=O)c2ccccc2-c2ccccc2CO[C@H]1CN(C)C(=O)Nc1cccc(Cl)c1Cl", "Gaussia minus Italica difference (%)": "-4.435"}
{"compound": "COc1ccccc1NC(=O)N[C@H]1C=C[C@@H](CC(=O)NCc2ccc(Cl)c(Cl)c2)O[C@@H]1CO", "Gaussia minus Italica difference (%)": "7.952"}
{"compound": "COc1ccc(NC(=O)N(C)C[C@@H]2OCc3ccccc3-c3c(n(C)c4ccccc34)C(=O)N([C@H](C)CO)C[C@@H]2C)cc1", "Gaussia minus Italica difference (%)": "-13.09"}
{"compound": "COc1ccc(NC(=O)N2CCCCN3[C@@H](CO)[C@H](c4ccc(-c5ccccc5F)cc4)[C@@H]3C2)cc1", "Gaussia minus Italica difference (%)": "-6.66"}
{"compound": "COc1cccc(S(=O)(=O)N2CC[C@@H]3[C@H](CO)N(C)c4ccc(C#Cc5cccnc5)cc4[C@@H]32)c1", "Gaussia minus Italica difference (%)": "-18.5"}
{"compound": "CCC(=O)N1CC2(CN(Cc3ccccc3Cl)C2)c2c([nH]c3cc(OC)ccc23)[C@@H]1CO", "Gaussia minus Italica difference (%)": "-19.96"}
{"compound": "C/C=C/c1ccc(C2[C@H]3CNC[C@@H]2N3Cc2cc(-c3ccccc3)on2)cc1", "stereo": "stereo partly specified", "Gaussia minus Italica difference (%)": "17.02"}
{"compound": "O=C(c1ccc2c(c1)OCO2)N1CC[C@H]2[C@H](CO)Nc3ccc(-c4ccccc4)cc3[C@H]21", "Gaussia minus Italica difference (%)": "20.15"}
{"compound": "O=C(C[C@@H]1CC[C@H]2[C@@H](COC[C@@H](O)CN2Cc2cc(F)ccc2F)O1)NCc1ccc(Cl)cc1", "Gaussia minus Italica difference (%)": "-8.222"}
{"compound": "CCCC#Cc1ccc([C@@H]2[C@H]3CN(C(=O)NC4CCCC4)CCCCN3[C@H]2CO)cc1", "Gaussia minus Italica difference (%)": "-20.49"}
{"compound": "COc1ccc2c3c([nH]c2c1)[C@H](CO)N(Cc1ccccc1)CC31CN(CC2CC2)C1", "Gaussia minus Italica difference (%)": "-3.125"}
{"compound": "CN1[C@@H]2c3ccc(/C=C/c4ccccc4)c(=O)n3C[C@@H]2[C@@H](CO)[C@@H]1C(=O)NC1CCCCC1", "Gaussia minus Italica difference (%)": "-7.713"}
{"compound": "C[C@@H]1CN([C@H](C)CO)C(=O)c2c(c3ccccc3n2C)-c2ccccc2CO[C@@H]1CN(C)Cc1cccc(F)c1", "Gaussia minus Italica difference (%)": "-16.33"}
{"compound": "CCC(=O)N(CC1CCC1)C[C@@H]1[C@@H](c2ccccc2)[C@H](CO)N1C(C)=O", "Gaussia minus Italica difference (%)": "-10.84"}
{"compound": "OC[C@H]1[C@H](c2ccc(/C=C/c3ccccc3)cc2)[C@@H]2CN(Cc3ccncc3)CCCCN12", "Gaussia minus Italica difference (%)": "-4.284"}
{"compound": "COCC(=O)Nc1ccc2c(c1)C(=O)N(C)C[C@@H](OC)[C@@H](C)CN(CCc1ccccc1)[C@H](C)CO2", "Gaussia minus Italica difference (%)": "-12.31"}
{"compound": "O=C(C[C@@H]1CC[C@H]2[C@@H](COC[C@@H](O)CN2Cc2ccc(Oc3ccccc3)cc2)O1)Nc1nccs1", "Gaussia minus Italica difference (%)": "-1.402"}
{"compound": "O=C(c1ccncc1)N1CC[C@@H]2[C@H]1c1cc(-c3ccc(F)cc3)ccc1N[C@@H]2CO", "Gaussia minus Italica difference (%)": "-9.039"}
{"compound": "CCc1sc(N2[C@@H](C#N)[C@@H](c3ccccc3-c3cccc(C)c3)[C@@H]2CO)nc1C", "Gaussia minus Italica difference (%)": "-0.5746"}
{"compound": "COc1ccccc1-c1ccc2c(c1)[C@H]1[C@H](CCN1S(=O)(=O)c1ccc(C)cc1)[C@@H](CO)N2", "Gaussia minus Italica difference (%)": "30.36"}
{"compound": "Cc1ccccc1S(=O)(=O)N1CC[C@@H]2[C@@H](CO)Nc3ccc(-c4cccc(C#N)c4)cc3[C@@H]21", "Gaussia minus Italica difference (%)": "-17.96"}

Once more, the final 5:

compound,Gaussia minus Italica difference (%)
O=C(C[C@@H]1CC[C@H]2[C@@H](COC[C@@H](O)CN2Cc2ccc(Oc3ccccc3)cc2)O1)Nc1nccs1,-1.402
O=C(c1ccncc1)N1CC[C@@H]2[C@H]1c1cc(-c3ccc(F)cc3)ccc1N[C@@H]2CO,-9.039
CCc1sc(N2[C@@H](C#N)[C@@H](c3ccccc3-c3cccc(C)c3)[C@@H]2CO)nc1C,-0.5746
COc1ccccc1-c1ccc2c(c1)[C@H]1[C@H](CCN1S(=O)(=O)c1ccc(C)cc1)[C@@H](CO)N2,30.36
Cc1ccccc1S(=O)(=O)N1CC[C@@H]2[C@@H](CO)Nc3ccc(-c4cccc(C#N)c4)cc3[C@@H]21,-17.96